The list shows a part of the results. Further columns of the screen follow, without active or inactive calls. The list favours compounds with an active or inconclusive main result. Potencies come from curve fits of mixed quality, noted in brackets.
Experiment: IkB Signaling
Settings: ABC-DLBCL IkBa-CBG/CBR dual luciferase ratio (green luciferase fused to IkBa over red control in OCI-Ly3 lymphoma cells), 4 h
Summary of the method: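 Luminescence ratio of IκBα-fused green versus native red beetle luciferase in OCI-Ly3 cells, 4 h post-doxycycline with compound; red signal alone, scaled from basal (0%) to zero light (-100%), flagged nonspecific or cytotoxic effects.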

[1] = measured here: control luc red channel unless noted

For `O=C1c2ccccc2C(=O)N1Cc1nc(-c2ccccn2)no1`, the AC50 [1] was 12.6 µM [falling, partial curve].
In the case of `O=c1c(N2CCN(c3cccc(C(F)(F)F)c3)CC2)csc2ccccc12`, the AC50 [1] is reported as 10 µM [falling, partial curve].
For `COc1ccc(-c2nc3ccc(NS(C)(=O)=O)cc3o2)cc1`, the AC50 [1] was 25.1 µM [rising, partial curve].
With `Cc1cc(C)cc(Nc2ccc(C(=O)O)cc2N)c1` the AC50 [1] was 0.251 µM [falling, full curve].
With `CCCCN1C(=O)C2ON(c3ccccc3C)C(c3ccco3)C2C1=O` (configuration not stated) the AC50 [1] was 7.94 µM [falling, partial curve].
With `CCN(C(=O)c1cnc(N2CCN(c3ncccn3)CC2)c2ccccc12)c1cccc(Cl)c1` the AC50 [1] was 3.98 µM [falling, full curve].
With `Cn1c(SCC(N)=O)nc2c([nH]c3ccccc32)c1=O` the AC50 [1] was 25.1 µM [falling, partial curve].
With `O=C(O)c1ccc(Nc2nc(-c3ccccc3)c3cc(Br)ccc3n2)cc1` the AC50 [1] was 0.0251 µM [falling, full curve].
For `O=S(=O)(CCN(CCS(=O)(=O)C(F)(F)F)CC1CCCO1)C(F)(F)F` (configuration not stated), the AC50 [1] was 39.8 µM [falling, single point].
In the case of `Cc1cccc(NC(=O)CSc2nc3ccc(NC(=O)COc4ccc(Cl)cc4)cc3s2)c1`, the AC50 [1] is reported as 5.01 µM [falling, partial curve].
With `Cc1c(NC(=O)Cc2ccc(F)cc2)cccc1-c1nc2cccnc2s1` the AC50 [1] was 15.8 µM [falling, partial curve].
In the case of `Cc1cccc(NC(=O)c2cc3c(=O)n(Cc4ccco4)ccc3nc2C)c1`, the AC50 [1] is reported as 39.8 µM [falling, single point].
With `CCOC(=O)CN(C(=O)CSc1nnc(CNc2ccc(F)cc2)o1)c1ccccc1` the AC50 [1] was 15.8 µM [falling, partial curve].
In the case of `Cc1ccc(NC(=O)/C=C/c2ccc(Cl)cc2)c(Br)c1`, the AC50 [1] is reported as 3.16 µM [rising, partial curve].
With `COc1cc(C2CC(=O)c3c([nH]c(C(=O)OCc4ccc(C)cc4)c3C)C2)cc(OC)c1OC` (configuration not stated) the AC50 [1] was 3.98 µM [falling, full curve, poor fit].
With `COc1cc(NC(=O)c2cc(Cl)ccc2Cl)ccc1NC(=O)c1cc2ccccc2o1` the AC50 [1] was 3.98 µM [falling, full curve].
In the case of `COc1ccccc1-c1nnc(C2CCN(C(=O)c3cccc(Cl)c3)CC2)o1`, the AC50 [1] is reported as 7.94 µM [falling, partial curve].
In the case of `Cc1cccc(C(c2sc3nc(-c4ccco4)nn3c2O)N2CCN(Cc3ccccc3)CC2)c1` (configuration not stated), the AC50 [1] is reported as 1 µM [rising, full curve, poor fit].
With `CCOC(=O)c1ccccc1NC(=O)Cn1c(=O)n(CCC(=O)N2CCc3ccccc3C2)c(=O)c2ccccc21` the AC50 [1] was 1.58 µM [falling, full curve].
With `COCCCNC(=O)c1[nH]c2ccccc2c1Sc1ccc(C)cc1` the AC50 [1] was 31.6 µM [falling, single point].
In the case of `CCS(=O)(=O)N1CCc2cc(C(=O)NCc3ccc(Cl)cc3)ccc21`, the AC50 [1] is reported as 10 µM [falling, partial curve].
For `Cc1nc2ncnn2c(N2CCCC(C(=O)Nc3ccc4c(c3)CCC4)C2)c1C` (configuration not stated), the AC50 [1] was 25.1 µM [falling, partial curve].
With `CCCn1c(=N)n(CC(O)COc2cccc(C)c2)c2ccccc21` (configuration not stated) the AC50 [1] was 15.8 µM [falling, partial curve].
With `CCN(CC)CCNc1ncnc2c1cnn2-c1cc(Cl)ccc1C` the AC50 [1] was 31.6 µM [falling, partial curve, poor fit].
With `COc1ccc(-n2nnnc2-c2cccc(OC)c2)cc1` the AC50 (measured here: IkB-luc green channel) was 7.94 µM [rising, partial curve] and the AC50 (measured here: control luc red channel) was 3.16 µM [rising, single point].
In the case of `Cc1ccc(C(=O)Nc2nc3nc(C)cc(=O)n3[nH]2)cc1`, the AC50 [1] is reported as 31.6 µM [falling, single point].
In the case of `COc1cccc(CNC(=O)CSc2nc(=O)[nH]c3c2CCC3)c1`, the AC50 [1] is reported as 39.8 µM [falling, single point].
In the case of `CCCN(C(=O)C(=O)Nc1ccc2nc3n(c(=O)c2c1)CCCCC3)c1ccc(OCC)cc1`, the AC50 [1] is reported as 20 µM [falling, single point].
With `CCS(=O)(=O)c1ccc(O)c(NC(=O)c2cc(OC)c(OC)c(OC)c2)c1` the AC50 [1] was 25.1 µM [falling, partial curve].
With `CCOc1ccccc1C(=O)Nc1cccc2ccc(C)nc12` the AC50 [1] was 12.6 µM [falling, partial curve].
With `COC(=O)c1ccccc1NC(=O)CN1CCC(n2nnc3cc(C)ccc32)CC1` the AC50 [1] was 0.794 µM [falling, full curve].

From PubChem BioAssay AID445 (National Center for Advancing Translational Sciences (NCATS), 2006)
